# Measurements reported in the supplement of paper PMC10849652.
# The chains behind the UniProt entries cited, without tags or fusion partners. Where a name states a change or a piece, a line headed by the entry shows the natural chain unless it says otherwise.
# UniProt P28749: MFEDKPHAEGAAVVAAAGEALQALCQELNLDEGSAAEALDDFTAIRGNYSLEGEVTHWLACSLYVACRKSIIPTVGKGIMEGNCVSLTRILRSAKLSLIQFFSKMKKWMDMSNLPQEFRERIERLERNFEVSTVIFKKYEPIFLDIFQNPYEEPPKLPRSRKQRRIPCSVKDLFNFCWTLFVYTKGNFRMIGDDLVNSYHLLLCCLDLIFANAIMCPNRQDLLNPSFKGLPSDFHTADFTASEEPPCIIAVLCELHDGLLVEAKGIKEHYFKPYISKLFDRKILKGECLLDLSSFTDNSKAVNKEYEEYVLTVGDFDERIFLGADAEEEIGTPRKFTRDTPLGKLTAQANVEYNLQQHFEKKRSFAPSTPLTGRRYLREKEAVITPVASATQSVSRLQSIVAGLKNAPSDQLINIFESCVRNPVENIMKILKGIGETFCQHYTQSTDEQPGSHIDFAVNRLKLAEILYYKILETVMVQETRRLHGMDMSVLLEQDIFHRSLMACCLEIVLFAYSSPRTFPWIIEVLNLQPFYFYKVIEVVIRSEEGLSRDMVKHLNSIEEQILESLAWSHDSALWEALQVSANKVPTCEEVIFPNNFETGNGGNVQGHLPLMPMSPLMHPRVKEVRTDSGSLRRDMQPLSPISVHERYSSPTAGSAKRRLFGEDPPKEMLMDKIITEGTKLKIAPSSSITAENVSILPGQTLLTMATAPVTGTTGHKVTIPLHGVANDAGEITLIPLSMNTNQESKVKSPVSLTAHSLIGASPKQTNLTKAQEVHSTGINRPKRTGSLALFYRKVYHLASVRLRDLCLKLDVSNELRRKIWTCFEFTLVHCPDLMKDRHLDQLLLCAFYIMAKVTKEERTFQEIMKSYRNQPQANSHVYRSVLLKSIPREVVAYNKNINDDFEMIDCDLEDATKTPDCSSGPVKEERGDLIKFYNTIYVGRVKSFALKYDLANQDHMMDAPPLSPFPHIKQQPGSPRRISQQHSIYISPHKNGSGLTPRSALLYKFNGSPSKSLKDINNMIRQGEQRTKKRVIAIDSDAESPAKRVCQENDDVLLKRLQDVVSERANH
# UniProt Q5TC82: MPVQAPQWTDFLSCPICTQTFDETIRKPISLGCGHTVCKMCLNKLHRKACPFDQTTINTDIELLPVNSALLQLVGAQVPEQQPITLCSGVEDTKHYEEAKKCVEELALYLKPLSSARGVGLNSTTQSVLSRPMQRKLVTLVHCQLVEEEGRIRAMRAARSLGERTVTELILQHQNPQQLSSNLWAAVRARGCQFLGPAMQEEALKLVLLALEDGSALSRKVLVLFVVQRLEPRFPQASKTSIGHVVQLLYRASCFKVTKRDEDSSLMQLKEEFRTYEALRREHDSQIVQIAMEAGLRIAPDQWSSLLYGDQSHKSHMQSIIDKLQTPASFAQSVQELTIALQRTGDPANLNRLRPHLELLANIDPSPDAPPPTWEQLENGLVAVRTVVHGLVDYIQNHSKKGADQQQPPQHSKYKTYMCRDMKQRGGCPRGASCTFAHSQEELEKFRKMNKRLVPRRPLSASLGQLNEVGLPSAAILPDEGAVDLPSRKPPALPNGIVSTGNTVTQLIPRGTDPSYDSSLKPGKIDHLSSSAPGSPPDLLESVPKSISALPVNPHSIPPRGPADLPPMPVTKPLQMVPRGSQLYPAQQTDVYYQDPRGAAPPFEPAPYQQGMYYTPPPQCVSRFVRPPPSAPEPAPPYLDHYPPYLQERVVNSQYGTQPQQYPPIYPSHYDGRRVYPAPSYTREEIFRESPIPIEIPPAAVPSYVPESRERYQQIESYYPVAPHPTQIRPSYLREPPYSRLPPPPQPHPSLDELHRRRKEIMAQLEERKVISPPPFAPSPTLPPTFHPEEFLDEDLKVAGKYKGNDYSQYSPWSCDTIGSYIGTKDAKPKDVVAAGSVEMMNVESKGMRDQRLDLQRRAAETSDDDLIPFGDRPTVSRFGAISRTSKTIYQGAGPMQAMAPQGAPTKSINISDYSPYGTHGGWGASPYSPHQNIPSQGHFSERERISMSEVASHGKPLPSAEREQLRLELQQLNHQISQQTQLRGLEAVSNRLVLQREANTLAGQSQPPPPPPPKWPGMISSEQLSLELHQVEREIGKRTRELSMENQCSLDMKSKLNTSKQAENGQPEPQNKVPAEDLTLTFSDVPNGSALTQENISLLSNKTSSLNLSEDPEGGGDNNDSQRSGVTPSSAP
# UniProt Q16576, whole entry, looked up: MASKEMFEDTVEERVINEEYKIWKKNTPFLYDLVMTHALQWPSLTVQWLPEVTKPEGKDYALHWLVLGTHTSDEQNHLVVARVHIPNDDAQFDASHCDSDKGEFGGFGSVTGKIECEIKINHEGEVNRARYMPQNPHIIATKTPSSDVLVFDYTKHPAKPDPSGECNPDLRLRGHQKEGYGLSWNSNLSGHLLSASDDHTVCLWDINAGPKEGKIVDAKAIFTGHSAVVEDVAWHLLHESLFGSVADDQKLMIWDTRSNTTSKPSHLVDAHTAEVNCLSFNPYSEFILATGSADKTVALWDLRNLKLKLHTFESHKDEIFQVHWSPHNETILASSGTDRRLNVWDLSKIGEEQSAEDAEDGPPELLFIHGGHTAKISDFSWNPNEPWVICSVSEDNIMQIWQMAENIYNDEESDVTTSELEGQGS
# UniProt P54136: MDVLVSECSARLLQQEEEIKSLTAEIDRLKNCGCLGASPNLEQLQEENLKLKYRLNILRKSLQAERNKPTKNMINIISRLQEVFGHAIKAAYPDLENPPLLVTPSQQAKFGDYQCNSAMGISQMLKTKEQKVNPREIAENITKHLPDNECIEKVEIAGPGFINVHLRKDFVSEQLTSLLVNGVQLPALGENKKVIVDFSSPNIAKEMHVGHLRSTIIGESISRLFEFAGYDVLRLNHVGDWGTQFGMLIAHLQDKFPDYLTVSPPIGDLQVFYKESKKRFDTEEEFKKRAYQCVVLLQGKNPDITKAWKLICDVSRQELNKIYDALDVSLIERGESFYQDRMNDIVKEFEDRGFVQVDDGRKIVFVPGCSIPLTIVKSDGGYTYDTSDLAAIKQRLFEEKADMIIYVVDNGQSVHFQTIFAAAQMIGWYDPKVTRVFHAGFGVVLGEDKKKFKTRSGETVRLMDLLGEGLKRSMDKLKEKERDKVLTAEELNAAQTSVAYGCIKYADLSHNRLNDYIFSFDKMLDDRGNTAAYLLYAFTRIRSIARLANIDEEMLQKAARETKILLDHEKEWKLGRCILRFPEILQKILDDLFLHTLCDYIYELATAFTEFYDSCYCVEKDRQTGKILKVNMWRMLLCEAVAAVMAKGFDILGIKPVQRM
# UniProt P49756, whole entry, looked up: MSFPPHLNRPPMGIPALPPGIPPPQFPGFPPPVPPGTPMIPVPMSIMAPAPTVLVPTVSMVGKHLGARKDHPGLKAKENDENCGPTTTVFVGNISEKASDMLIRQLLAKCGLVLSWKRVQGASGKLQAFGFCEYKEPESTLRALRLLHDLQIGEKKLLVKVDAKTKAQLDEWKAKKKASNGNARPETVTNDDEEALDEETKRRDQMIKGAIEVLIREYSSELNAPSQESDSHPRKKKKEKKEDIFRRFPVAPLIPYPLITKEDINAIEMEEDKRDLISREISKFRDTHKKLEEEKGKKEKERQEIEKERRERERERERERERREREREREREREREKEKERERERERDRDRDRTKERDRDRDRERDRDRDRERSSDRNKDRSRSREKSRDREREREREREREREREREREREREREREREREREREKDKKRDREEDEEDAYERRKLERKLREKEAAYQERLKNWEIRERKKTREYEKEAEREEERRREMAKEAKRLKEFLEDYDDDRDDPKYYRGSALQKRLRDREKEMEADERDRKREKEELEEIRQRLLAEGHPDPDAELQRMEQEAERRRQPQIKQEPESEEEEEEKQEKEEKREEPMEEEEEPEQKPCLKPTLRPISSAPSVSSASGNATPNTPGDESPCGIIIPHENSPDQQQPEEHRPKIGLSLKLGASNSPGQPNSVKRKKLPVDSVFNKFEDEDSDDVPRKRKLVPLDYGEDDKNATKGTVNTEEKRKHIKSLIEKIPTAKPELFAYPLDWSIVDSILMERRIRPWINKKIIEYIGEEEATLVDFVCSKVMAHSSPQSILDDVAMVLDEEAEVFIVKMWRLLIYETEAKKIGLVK
# UniProt Q06330: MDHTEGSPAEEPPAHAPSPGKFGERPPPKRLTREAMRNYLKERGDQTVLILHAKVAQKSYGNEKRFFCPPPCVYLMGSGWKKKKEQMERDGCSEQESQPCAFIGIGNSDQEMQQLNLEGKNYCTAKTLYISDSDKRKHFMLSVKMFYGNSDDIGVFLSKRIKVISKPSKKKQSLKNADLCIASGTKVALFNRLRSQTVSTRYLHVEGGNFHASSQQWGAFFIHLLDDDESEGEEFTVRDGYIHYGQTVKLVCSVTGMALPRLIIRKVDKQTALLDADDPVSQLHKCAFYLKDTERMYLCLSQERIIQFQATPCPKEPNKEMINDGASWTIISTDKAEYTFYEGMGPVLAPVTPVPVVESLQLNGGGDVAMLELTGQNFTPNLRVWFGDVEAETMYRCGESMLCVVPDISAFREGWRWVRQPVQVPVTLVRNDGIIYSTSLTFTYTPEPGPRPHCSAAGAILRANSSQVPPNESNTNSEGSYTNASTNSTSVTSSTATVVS
# UniProt P48382: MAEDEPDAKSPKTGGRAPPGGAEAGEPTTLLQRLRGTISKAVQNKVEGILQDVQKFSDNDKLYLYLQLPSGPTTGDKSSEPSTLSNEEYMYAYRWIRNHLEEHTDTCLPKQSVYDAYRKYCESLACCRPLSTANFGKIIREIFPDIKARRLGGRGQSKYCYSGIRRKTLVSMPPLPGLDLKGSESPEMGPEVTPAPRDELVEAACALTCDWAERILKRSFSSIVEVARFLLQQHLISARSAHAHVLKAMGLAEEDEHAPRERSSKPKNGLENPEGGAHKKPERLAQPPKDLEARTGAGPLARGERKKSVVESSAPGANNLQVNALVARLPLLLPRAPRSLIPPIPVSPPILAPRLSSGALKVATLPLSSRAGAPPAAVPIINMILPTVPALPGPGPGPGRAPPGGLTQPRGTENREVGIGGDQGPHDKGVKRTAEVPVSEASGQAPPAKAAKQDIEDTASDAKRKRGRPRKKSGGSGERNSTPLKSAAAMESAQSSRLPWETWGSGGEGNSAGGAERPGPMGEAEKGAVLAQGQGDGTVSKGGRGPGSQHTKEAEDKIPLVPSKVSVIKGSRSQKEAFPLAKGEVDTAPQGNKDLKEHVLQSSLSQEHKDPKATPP
# UniProt Q9H1K0: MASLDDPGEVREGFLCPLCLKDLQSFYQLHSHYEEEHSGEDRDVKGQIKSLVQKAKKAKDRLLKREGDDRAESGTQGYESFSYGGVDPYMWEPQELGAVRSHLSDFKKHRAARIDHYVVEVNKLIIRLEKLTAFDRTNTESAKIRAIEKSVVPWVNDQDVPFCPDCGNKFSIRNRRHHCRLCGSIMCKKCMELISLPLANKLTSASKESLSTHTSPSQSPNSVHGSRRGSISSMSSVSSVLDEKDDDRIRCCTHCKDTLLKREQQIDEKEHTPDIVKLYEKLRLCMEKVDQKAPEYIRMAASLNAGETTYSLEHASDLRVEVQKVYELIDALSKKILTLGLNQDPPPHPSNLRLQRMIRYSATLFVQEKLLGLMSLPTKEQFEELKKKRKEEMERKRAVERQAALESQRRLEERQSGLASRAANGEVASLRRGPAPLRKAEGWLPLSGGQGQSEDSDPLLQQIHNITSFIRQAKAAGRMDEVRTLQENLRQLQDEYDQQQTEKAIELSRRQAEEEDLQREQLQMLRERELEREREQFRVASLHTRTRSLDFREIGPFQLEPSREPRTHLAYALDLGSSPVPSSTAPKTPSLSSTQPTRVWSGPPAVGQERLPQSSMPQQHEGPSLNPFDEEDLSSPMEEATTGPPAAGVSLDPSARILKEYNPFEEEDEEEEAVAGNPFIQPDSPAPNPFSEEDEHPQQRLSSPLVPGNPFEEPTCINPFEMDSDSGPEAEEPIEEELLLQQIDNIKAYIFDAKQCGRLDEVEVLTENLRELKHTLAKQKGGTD
# UniProt Q9BTD8: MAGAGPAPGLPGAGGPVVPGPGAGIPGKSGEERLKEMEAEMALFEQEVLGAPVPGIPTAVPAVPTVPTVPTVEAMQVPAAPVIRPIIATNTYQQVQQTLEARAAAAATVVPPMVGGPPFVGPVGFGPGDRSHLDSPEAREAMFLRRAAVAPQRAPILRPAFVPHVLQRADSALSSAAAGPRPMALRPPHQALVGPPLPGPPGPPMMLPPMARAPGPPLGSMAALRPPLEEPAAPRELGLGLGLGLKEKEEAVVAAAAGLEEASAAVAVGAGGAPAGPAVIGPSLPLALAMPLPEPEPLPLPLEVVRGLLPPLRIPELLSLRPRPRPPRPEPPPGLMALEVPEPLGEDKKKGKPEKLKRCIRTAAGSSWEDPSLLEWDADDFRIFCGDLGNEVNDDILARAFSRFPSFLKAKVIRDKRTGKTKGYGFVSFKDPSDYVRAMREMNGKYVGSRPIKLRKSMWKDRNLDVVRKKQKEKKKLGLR
# The list shows a part of the results.
# How the values were obtained:
# Assay in all cases: log2 fold change, soluble protein after heating vs DMSO (PISA); higher = thermal stabilisation; K562 lysate, 10 uM; active = over 0.2 and 3.5 SD of the protein, either way, in both replicates (recomputed)
# [1] = compound: CN1CC[C@H](c2c(O)cc(O)c3c(=O)cc(-c4ccccc4Cl)oc23)[C@H](O)C1 [alvocidib]
# Method in brief: (§1)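 K562 pellets were dounce-homogenised in PBS pH 7.4 containing 1 mM MgCl2, and the crude extract, at 1 mg/mL protein, was exposed to 10 μM compound for 30 min. Aliquots were heated for 3 min across 48°C-58°C, pooled, brought to 0.5% NP-40 at 4°C and spun at 21,000xg for 90 min, with the supernatant taken as soluble protein. TMTpro 16plex LC-MS/MS with equalised channel sums quantified that protein. Values are log-two fold changes in thermal stability relative to solvent controls, taken from duplicates.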
# [2] = compound: CN1CCc2c(c3ccccc3n2Cc2ccc(C(=O)NO)cc2)C1 [Tubastatin A]
# Method in brief: as §1
# [3] = compound: CNC(=O)C1=CC=CC=C1NC2=NC(=NC=C2Cl)NC3=C(C=C(C=C3)N4CCOCC4)OC
# Method in brief: as §1
# [4] = compound: CNC(=O)c1ccc(Nc2ncc(C(F)(F)F)c(NCc3nccnc3N(C)S(C)(=O)=O)n2)cc1 [defactinib]
# Method in brief: as §1
# [5] = compound: CNc1nc(-c2ccc3c(N)n[nH]c3c2)cc(N2C[C@@H](C(=O)NC3CCCCC3)CC[C@H]2C)n1
# Method in brief: as §1
# [6] = compound: COC(=O)N[C@@H](C)CNc1nccc(-c2cn(C(C)C)nc2-c2cc(Cl)cc(NS(C)(=O)=O)c2F)n1 [encorafenib]
# Method in brief: as §1
# [7] = compound: COC(=O)[C@H](CCSC)NC(=O)C1=C(C=C(C=C1)NC[C@H](CS)N)C2=CC=CC=C2
# Method in brief: as §1
# [8] = compound: COc1cc(Nc2ncc3c(n2)-c2ccc(Cl)cc2C(c2c(F)cccc2OC)=NC3)ccc1C(=O)O [alisertib]
# Method in brief: as §1
# [9] = compound: COc1cc2nc(-c3cc(F)ccc3O)nc(N[C@@H]3CNC[C@H]3C(C)(C)O)c2cc1OC
# Method in brief: as §1
# [10] = compound: COc1cc2ncnc(Nc3ccc(F)c(Cl)c3)c2cc1OCCCN1CCOCC1 [gefitinib]
# Method in brief: as §1
# [11] = compound: CS(=O)(=O)CCNCc1ccc(-c2ccc3ncnc(Nc4ccc(OCc5cccc(F)c5)c(Cl)c4)c3c2)o1 [lapatinib]
# Method in brief: as §1
# [12] = compound: CS(=O)(=O)N1CCN(Cc2cc3nc(-c4cccc5[nH]ncc45)nc(N4CCOCC4)c3s2)CC1 [pictilisib]
# Method in brief: as §1
# [13] = compound: C[C@@H](Oc1cc(-c2cnn(C3CCNCC3)c2)cnc1N)c1c(Cl)ccc(F)c1Cl [crizotinib]
# Method in brief: as §1
# [14] = compound: C[C@H](C1=CC=C(C=C1)C(=O)NC2=C3C=CNC3=NC=C2)N
# Method in brief: as §1
# [15] = compound: C[C@H](Nc1ncnc2nc[nH]c12)c1cc2cccc(Cl)c2c(=O)n1-c1ccccc1 [duvelisib]
# Method in brief: as §1
# [16] = compound: Cc1cc(Nc2cc(CN3CCOCC3)c3nc(C)c(Cc4ccc(Cl)cc4F)n3n2)n[nH]1 [gandotinib]
# Method in brief: as §1
# [17] = compound: Cc1cc(Nc2cc(N3CCN(C)CC3)nc(Sc3ccc(NC(=O)C4CC4)cc3)n2)n[nH]1 [tozasertib]
# Method in brief: as §1
# [18] = compound: Cc1ccc(-n2nc(C(C)(C)C)cc2NC(=O)Nc2ccc(OCCN3CCOCC3)c3ccccc23)cc1 [doramapimod]
# Method in brief: as §1
# [19] = compound: Cc1ccc(NC(=O)c2ccc(CN3CC[C@H](N(C)C)C3)c(C(F)(F)F)c2)cc1Nc1nccc(-c2cncnc2)n1 [bafetinib]
# Method in brief: as §1
# [20] = compound: Cc1cccc(CC(=O)N2CCc3c2ccc(-c2cn(C)c4ncnc(N)c24)c3F)n1
# Method in brief: as §1
Target,log2 fold change [1],log2 fold change [2],log2 fold change [3],log2 fold change [4],log2 fold change [5],log2 fold change [6],log2 fold change [7],log2 fold change [8],log2 fold change [9],log2 fold change [10],log2 fold change [11],log2 fold change [12],log2 fold change [13],log2 fold change [14],log2 fold change [15],log2 fold change [16],log2 fold change [17],log2 fold change [18],log2 fold change [19],log2 fold change [20]
RBL1 (UniProt P28749),inactive: -0.08,inactive: -0.056,inactive: -0.01,inactive: -0.074,inactive: 0.096,inactive: 0.042,inactive: 0.095,inactive: -0.131,inactive: 0.007,inactive: -0.159,inactive: 0.037,inactive: -0.016,inactive: -0.06,inactive: -0.003,inactive: -0.055,inactive: 0.032,inactive: -0.023,inactive: -0.092,inactive: -0.041,inactive: 0.049
RC3H1 (UniProt Q5TC82),inactive: -0.013,inactive: -0.103,inactive: 0.015,inactive: -0.04,inactive: -0.026,inactive: 0.061,inactive: -0.025,inactive: -0.002,inactive: 0.072,inactive: -0.074,inactive: 0.026,inactive: 0.011,inactive: -0.03,inactive: 0.044,inactive: -0.044,inactive: -0.122,inactive: 0.042,inactive: -0.007,inactive: -0.025,inactive: -0.044
RCOR3 isoform 3 (UniProt Q9P2K3),inactive: -0.005,inactive: -0.09,inactive: -0.002,inactive: 0.009,inactive: -0.014,inactive: 0.012,inactive: 0.088,inactive: 0.003,inactive: -0.006,inactive: 0.026,inactive: 0.016,inactive: 0.023,inactive: 0.011,inactive: 0.014,inactive: -0.029,inactive: -0.024,inactive: 0.009,inactive: -0.048,inactive: -0.035,inactive: 0.004
RBBP7 isoform 2 (UniProt Q16576),inactive: -0.005,inactive: -0.004,inactive: -0.021,inactive: -0.023,inactive: -0.028,inactive: 0.03,inactive: -0.034,inactive: 0.03,inactive: -0.003,inactive: 0.002,inactive: 0.002,inactive: 0.027,inactive: 0.008,inactive: -0.213,inactive: 0.025,inactive: 0.019,inactive: 0.017,inactive: 0.035,inactive: 0.018,inactive: -0.011
RARS (UniProt P54136),inactive: 0.032,inactive: -0.1,inactive: -0.006,inactive: 0.024,inactive: -0.035,inactive: -0.001,inactive: 0.128,inactive: 0.026,inactive: -0.009,inactive: -0.023,inactive: 0.003,inactive: 0.019,inactive: -0.047,inactive: 0.039,inactive: -0.018,inactive: -0.078,inactive: 0.019,inactive: 0.042,inactive: -0.029,inactive: 0.041
REXO4 (UniProt Q9GZR2),inactive: 0.089,inactive: -0.108,inactive: 0.026,inactive: 0.013,inactive: 0.032,inactive: -0.007,inactive: 0.08,inactive: -0.008,inactive: 0.024,inactive: -0.029,inactive: 0,inactive: -0.128,inactive: 0.017,active: 0.349,inactive: -0.003,inactive: -0.169,inactive: -0.017,inactive: -0.056,inactive: -0.06,inactive: -0.139
RBM25 (UniProt P49756),inactive: -0.046,inactive: 0.071,inactive: -0.014,inactive: -0.009,inactive: 0.02,inactive: 0.046,inactive: 0.008,inactive: 0.031,inactive: -0.014,inactive: 0.005,inactive: -0.027,inactive: 0.035,inactive: 0.024,inactive: -0.007,inactive: -0.052,inactive: 0.048,inactive: 0.015,inactive: 0.134,inactive: -0.013,inactive: 0.038
RBPJ (UniProt Q06330),inactive: 0.01,inactive: 0.044,inactive: 0.005,inactive: 0.052,inactive: -0.002,inactive: -0.002,inactive: 0.002,inactive: -0.013,inactive: 0.01,inactive: 0.039,inactive: -0.005,inactive: -0.077,inactive: -0.009,inactive: -0.004,inactive: 0.039,inactive: -0.027,inactive: 0.023,inactive: 0.046,inactive: -0.011,inactive: -0.023
RFX5 (UniProt P48382),inactive: -0.003,inactive: -0.009,inactive: 0,inactive: -0.042,inactive: 0.029,inactive: 0.041,inactive: 0.004,inactive: 0.045,inactive: -0.05,inactive: 0.1,inactive: 0.034,inactive: 0.038,inactive: 0,inactive: 0.016,inactive: 0.029,inactive: -0.046,inactive: -0.093,inactive: 0.026,inactive: -0.016,inactive: 0.055
RBM22 (UniProt Q9NW64),inactive: 0.022,inactive: 0.019,inactive: 0.009,inactive: 0.001,inactive: 0.179,inactive: 0.05,inactive: -0.11,inactive: 0.002,inactive: 0.026,inactive: 0.031,inactive: -0.01,inactive: -0.011,inactive: 0.038,inactive: 0.034,inactive: 0.008,inactive: -0.019,inactive: 0.026,inactive: 0.072,inactive: 0.001,inactive: -0.016
RECQL5 (UniProt O94762),inactive: 0.057,inactive: -0.053,inactive: -0.071,inactive: 0.068,inactive: 0.074,inactive: 0.225,inactive: 0.016,inactive: -0.003,inactive: 0.09,inactive: 0.03,inactive: 0.277,inactive: 0.06,inactive: 0.049,inactive: 0.084,inactive: 0.029,inactive: -0.15,inactive: 0.031,inactive: -0.008,inactive: -0.062,inactive: -0.09
RARS2 (UniProt Q5T160),inactive: -0.023,inactive: -0.047,inactive: 0.025,inactive: 0.041,inactive: -0.02,inactive: 0.111,inactive: -0.157,inactive: -0.017,inactive: 0.012,inactive: 0.043,inactive: 0.011,inactive: 0.009,inactive: -0.072,inactive: 0.019,inactive: -0.043,inactive: -0.188,inactive: 0.015,inactive: 0,inactive: -0.043,inactive: 0.023
RBSN (UniProt Q9H1K0),inactive: -0.031,inactive: 0.005,inactive: -0.047,inactive: 0.015,inactive: -0.014,inactive: 0.089,inactive: -0.048,inactive: 0.019,inactive: 0.015,inactive: 0.059,inactive: -0.008,inactive: -0.024,inactive: -0.012,inactive: -0.032,inactive: 0.093,inactive: 0.019,inactive: 0.13,inactive: -0.026,inactive: 0.026,inactive: 0.059
RBM42 (UniProt Q9BTD8),inactive: -0.036,inactive: -0.022,inactive: 0.08,inactive: 0.058,inactive: 0.077,inactive: 0.098,active: -0.28,inactive: 0.043,inactive: -0.062,inactive: -0.066,inactive: 0.05,inactive: 0.049,inactive: 0.01,inactive: 0.026,inactive: -0.032,inactive: 0.04,inactive: -0.001,active: 0.216,inactive: 0.083,inactive: -0.01
RELCH isoform 2 (UniProt Q9P260),inactive: 0.036,inactive: -0.044,inactive: 0.04,inactive: -0.002,inactive: 0.038,inactive: 0.033,inactive: 0.008,inactive: -0.017,inactive: 0.006,inactive: 0.006,inactive: 0.026,inactive: -0.036,inactive: -0.074,inactive: 0.009,inactive: -0.017,inactive: -0.036,inactive: -0.016,inactive: 0.027,inactive: -0.004,inactive: -0.007

# 2 records picked at random from those above, as already listed:
Target,log2 fold change [1],log2 fold change [2],log2 fold change [3],log2 fold change [4],log2 fold change [5],log2 fold change [6],log2 fold change [7],log2 fold change [8],log2 fold change [9],log2 fold change [10],log2 fold change [11],log2 fold change [12],log2 fold change [13],log2 fold change [14],log2 fold change [15],log2 fold change [16],log2 fold change [17],log2 fold change [18],log2 fold change [19],log2 fold change [20]
RBBP7 isoform 2 (UniProt Q16576),inactive: -0.005,inactive: -0.004,inactive: -0.021,inactive: -0.023,inactive: -0.028,inactive: 0.03,inactive: -0.034,inactive: 0.03,inactive: -0.003,inactive: 0.002,inactive: 0.002,inactive: 0.027,inactive: 0.008,inactive: -0.213,inactive: 0.025,inactive: 0.019,inactive: 0.017,inactive: 0.035,inactive: 0.018,inactive: -0.011
RECQL5 (UniProt O94762),inactive: 0.057,inactive: -0.053,inactive: -0.071,inactive: 0.068,inactive: 0.074,inactive: 0.225,inactive: 0.016,inactive: -0.003,inactive: 0.09,inactive: 0.03,inactive: 0.277,inactive: 0.06,inactive: 0.049,inactive: 0.084,inactive: 0.029,inactive: -0.15,inactive: 0.031,inactive: -0.008,inactive: -0.062,inactive: -0.09
